Data on two substances can be found in article PMC3236217.

Chains of the proteins cited; added tags and fusions are not shown. Lines headed by an entry give the natural chain unless they say otherwise; changes in a name come on top.
UniProt P17870: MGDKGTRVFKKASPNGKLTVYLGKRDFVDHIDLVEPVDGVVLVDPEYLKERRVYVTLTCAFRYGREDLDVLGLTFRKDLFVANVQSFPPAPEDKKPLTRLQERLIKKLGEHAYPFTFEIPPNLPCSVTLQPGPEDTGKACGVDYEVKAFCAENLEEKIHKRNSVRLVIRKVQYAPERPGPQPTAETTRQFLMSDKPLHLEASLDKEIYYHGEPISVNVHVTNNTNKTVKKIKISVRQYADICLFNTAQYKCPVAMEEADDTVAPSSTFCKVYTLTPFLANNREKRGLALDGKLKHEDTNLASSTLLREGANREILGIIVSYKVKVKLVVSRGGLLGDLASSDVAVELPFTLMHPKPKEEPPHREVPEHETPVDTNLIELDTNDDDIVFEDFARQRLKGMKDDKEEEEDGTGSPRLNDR

These are yes or no findings as the source states them, for the method shown. Binding seen in cells or lysates may run through a third protein. Binding calls can cover weak binding; strength is not graded here.

Experiment [1] concerns the target Flag-tagged arrestin-2-Δ7 (UniProt P17870). As to the kind of experiment: co-IP; COS-7 cells co-transfected, serum starved, with or without 10 µM isoproterenol (10 min, 37°C) and with or without HA-β2AR over-expression; anti-Flag immunoprecipitation of arrestin, anti-HA blot; lysis buffer with 250 mM NaCl, 0.5% Nonidet P-40.
Experiment [2] concerns the target Flag-tagged arrestin-3-Δ7 (UniProt P32120). The description is as above.

Regarding “MEK1-HA (from UniProt Q02750 1-393) (enzyme)”, the binding entry in experiment [1] and in experiment [2] was “binds” each time.
As for “c-Raf1-HA (from UniProt P04049 1-648) (enzyme)”, the binding entry in experiment [2] was “binds”.
